Laboratory results as given in patent publication US20030104975A1, “Cofactor-based screening method for nuclear receptor modulators and related modulators” (priority 2001, published 2003).
At least one structure is not confirmed: it was looked up by name or label, or the drawing left a doubt.

Tested on: 3T3-L1 cells
Assay: 3T3-L1 adipocyte differentiation assay
Assay type: cell-based, murine
Conditions: 6 day incubation, FMOC-L-Leu 10^-5 M, rosiglitazone 10^-7 M
Experimental: A: Expression of adipocyte markers during differentiation of 3T3-L1 cells treated with different PPAR-gamma agonists. Confluent 3T3-L1 cells were incubated with 2 μM insulin, 1 μM dexamethasone, and 0.25 mM isobuthyl methyl xanthine for two days. […] RNA was isolated from 3T3-L1 cells after different times of differentiation induction. Blots were hybridized with DNA probes that specifically bind to 36B4 (to control for RNA loading), lipoprotein lipase (LPL), or aP2.
Cells were stained with Oil Red O after 6 days of treatment.
3T3-L1 cells (ATCC, Rockville, Md.) were grown to confluence in medium A (Dulbecco's modified Eagle's Medium with 10% fetal calf serum, 100 units/ml penicillin, and 100 μg/ml streptomycin). Confluent cell were incubated in medium A containing 2 μM insulin, 1 μM dexamethasone, and 0.25 mM isobuthyl methyl xanthine for two days. Then, the cells were incubated in medium A in presence or absence of PPARγ agonist for 4 days, changing the medium every 2 days. Adipogenesis was evaluated by analysis of the expression of adipocyte-specific markers and by staining of lipids with Oil Red O (Chawla & Lazar, 1994, Proc. Natl. Acad. Sci. USA 91, 1786-1790).
RNA was isolated from 3T3-L1 cells by the acid guanidinium thiocyanate/phenol/chloroform method (Chomczynski & Sacchi, 1987, Anal. Biochem. 162, 156-159). […]

## CN(CCOc1ccc(CC2SC(=O)NC2=O)cc1)c1ccccn1 (stereo not shown) [rosiglitazone, Rosiglitazone]
  neutral lipid accumulation (Oil Red O staining): capable of inducing neutral lipid accumulation
